# From PMC8355244, “A fragment-based approach identifies an allosteric pocket that impacts malate dehydrogenase activity” (Communications Biology, 2021)
# The chains behind the UniProt entries cited, without tags or fusion partners.
# UniProt Q6VVP7, entry or part of it: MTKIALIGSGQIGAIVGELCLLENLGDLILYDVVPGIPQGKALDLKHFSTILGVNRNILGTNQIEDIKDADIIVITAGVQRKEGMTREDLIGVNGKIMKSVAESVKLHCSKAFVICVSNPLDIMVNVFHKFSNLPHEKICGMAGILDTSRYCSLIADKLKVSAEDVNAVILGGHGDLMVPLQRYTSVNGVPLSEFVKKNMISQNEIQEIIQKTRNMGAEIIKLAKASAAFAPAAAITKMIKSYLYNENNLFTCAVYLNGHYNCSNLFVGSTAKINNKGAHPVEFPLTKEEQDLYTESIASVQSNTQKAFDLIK
# Values joined by “and” are separate entries in the source; they are usually repeats but may differ in a detail not shown here. Equal entries are not always repeated. This continues a long series; more values of the same kind are listed elsewhere.
# Biological target: T1, PfMDH (Plasmodium falciparum, UniProt Q6VVP7)
# T1 construct: The full-length WT PfMDH gene was cloned into pETM-13; made in house; host or cells: E. coli Rosetta 2 (DE3) pLysS
# Assay: Thermal shift assay (TSA)
# Assay type: binding
# Conditions: for TSA melting curve raw signal: triplicate columns; for TSA melting curve raw fluorescence signal: three replicate columns
# Procedure: The TSA experiment was conducted in a BioRad CSX 96 (Biorad). Each reaction consisted of 1 mM of compound (100 mM stock in 100% (v/v) DMSO) and 10 μM PfMDH in 100 mM Na–phosphate buffer pH 7.4, 400 mM NaCl, and 10× Sypro Orange (Invitrogen) for a total volume of 100 μl. Control experiments were performed with 1% (v/v) DMSO. Inflection points were determined using BioRad CFX96™ control software. Generally, a temperature increase of over 1 °C is interpreted as a result of the stabilization of the protein-ligand interaction. On the contrary, a negative shift is considered a destabilization caused by the fragment.
smiles,measurement,setting,value
"Nc1nc(-c2ccc(F)c(F)c2)cs1 [4DT, 4-(3,4-difluorophenyl) thiazol-2-amine]",TSA melting curve raw signal,Temperature 25.5,3310.109 and 3348.575 and 3329.174
same,TSA melting curve raw signal,Temperature 26,3314.157 and 3354.289 and 3333.547
same,TSA melting curve raw signal,Temperature 26.5,3318.205 and 3360.004 and 3337.921
same,TSA melting curve raw signal,Temperature 27,3322.253 and 3365.718 and 3342.294
same,TSA melting curve raw signal,Temperature 27.5,3326.301 and 3371.433 and 3346.667
same,TSA melting curve raw signal,Temperature 28,3330.349 and 3377.147 and 3351.041
same,TSA melting curve raw signal,Temperature 44.5,3878.808 and 4006.869
same,TSA melting curve raw signal,Temperature 45,3945.234 and 3935.56 and 4074.644
same,TSA melting curve raw signal,Temperature 45.5,4013.389 and 3998.012 and 4148.379
same,TSA melting curve raw signal,Temperature 46,4087.29 and 4066.185 and 4228.076
same,TSA melting curve raw signal,Temperature 46.5,4166.849 and 4140.566 and 4313.761
same,TSA melting curve raw signal,Temperature 47,4252.237 and 4221.386 and 4404.698
same,TSA melting curve raw signal,Temperature 47.5,4343.677 and 4308.943 and 4501.15
same,TSA melting curve raw signal,Temperature 48,4441.151 and 4404.384 and 4603.168
same,TSA melting curve raw signal,Temperature 48.5,4544.565 and 4507.944 and 4710.806
same,TSA melting curve raw signal,Temperature 49,4653.77 and 4619.725 and 4823.933
same,TSA melting curve raw signal,Temperature 49.5,4768.71 and 4739.543 and 4942.399
same,TSA melting curve raw signal,Temperature 50,4888.706 and 4866.921 and 5065.408
same,TSA melting curve raw signal,Temperature 50.5,5013.787 and 5000.512 and 5192.658
same,TSA melting curve raw signal,Temperature 51,5144.887 and 5141.084 and 5324.839
same,TSA melting curve raw signal,Temperature 51.5,5283.178 and 5289.047 and 5462.277
same,TSA melting curve raw signal,Temperature 52,5428.491 and 5444.876 and 5605.02
same,TSA melting curve raw signal,Temperature 52.5,5582.512 and 5609.134 and 5754.355
same,TSA melting curve raw signal,Temperature 53,5745.97 and 5783.142 and 5910.997
same,TSA melting curve raw signal,Temperature 53.5,5918.26 and 5965.92 and 6074.314
same,TSA melting curve raw signal,Temperature 54,6098.955 and 6156.778 and 6243.942
same,TSA melting curve raw signal,Temperature 54.5,6288.304 and 6354.987 and 6420.63
same,TSA melting curve raw signal,Temperature 55,6484.198 and 6559.011 and 6602.626
same,TSA melting curve raw signal,Temperature 55.5,6685.144 and 6766.639 and 6788.956
same,TSA melting curve raw signal,Temperature 56,6889.937 and 6976.846 and 6978.834
same,TSA melting curve raw signal,Temperature 56.5,7094.983 and 7186.922 and 7170.125
same,TSA melting curve raw signal,Temperature 57,7297.654 and 7395.093 and 7360.935
same,TSA melting curve raw signal,Temperature 57.5,7495.165 and 7599.526 and 7549.74
same,TSA melting curve raw signal,Temperature 58,7683.198 and 7796.82 and 7732.645
same,TSA melting curve raw signal,Temperature 58.5,7857.399 and 7983.142 and 7906.06
same,TSA melting curve raw signal,Temperature 59,8014.791 and 8155.418 and 8067.084
same,TSA melting curve raw signal,Temperature 59.5,8151.416 and 8309.186 and 8210.668
same,TSA melting curve raw signal,Temperature 60,8264.099 and 8440.191 and 8333.004
same,TSA melting curve raw signal,Temperature 60.5,8351.613 and 8546.411 and 8432.064
same,TSA melting curve raw signal,Temperature 61,8412.863 and 8625.875 and 8506.009
same,TSA melting curve raw signal,Temperature 61.5,8449.209 and 8678.985 and 8554.815
same,TSA melting curve raw signal,Temperature 62,8462.896 and 8706.994 and 8580.477
same,TSA melting curve raw signal,Temperature 62.5,8457.116 and 8712.987 and 8585.559
same,TSA melting curve raw signal,Temperature 63,8434.912 and 8700.475 and 8573.243
same,TSA melting curve raw signal,Temperature 63.5,8401.07 and 8674.039 and 8546.913
same,TSA melting curve raw signal,Temperature 64,8358.615 and 8636.75 and 8509.814
same,TSA melting curve raw signal,Temperature 64.5,8310.063 and 8592.42 and 8464.811
same,TSA melting curve raw signal,Temperature 65,8257.814 and 8543.36 and 8414.074
same,TSA melting curve raw fluorescence signal,Temperature 65.5,8203.884 and 8491.234 and 8359.323
same,TSA melting curve raw fluorescence signal,Temperature 66,8148.595 and 8436.96 and 8302.463
same,TSA melting curve raw fluorescence signal,Temperature 66.5,8092.379 and 8381.707 and 8243.933
same,TSA melting curve raw fluorescence signal,Temperature 67,8035.836 and 8325.947 and 8184.645
same,TSA melting curve raw fluorescence signal,Temperature 67.5,7979.211 and 8270.06 and 8125.088
same,TSA melting curve raw fluorescence signal,Temperature 68,7922.502 and 8214.456 and 8065.789
same,TSA melting curve raw fluorescence signal,Temperature 68.5,7865.726 and 8159.213 and 8006.473
same,TSA melting curve raw fluorescence signal,Temperature 69,7808.933 and 8104.228 and 7947.546
same,TSA melting curve raw fluorescence signal,Temperature 69.5,7752.132 and 8048.808 and 7888.309
same,TSA melting curve raw fluorescence signal,Temperature 70,7695.022 and 7993.407 and 7829.19
same,TSA melting curve raw fluorescence signal,Temperature 70.5,7637.795 and 7937.714 and 7770.069
same,TSA melting curve raw fluorescence signal,Temperature 71,7580.973 and 7881.942 and 7711.563
same,TSA melting curve raw fluorescence signal,Temperature 71.5,7524.79 and 7826.153 and 7653.83
same,TSA melting curve raw fluorescence signal,Temperature 72,7469.045 and 7771.204 and 7597.586
same,TSA melting curve raw fluorescence signal,Temperature 72.5,7414.194 and 7716.604 and 7542.506
same,TSA melting curve raw fluorescence signal,Temperature 73,7360.049 and 7662.598 and 7488.737
same,TSA melting curve raw fluorescence signal,Temperature 90,5884.201 and 5750.825
same,TSA melting curve raw fluorescence signal,Temperature 90.5,5583.58 and 5832.95 and 5700.754
same,TSA melting curve raw fluorescence signal,Temperature 91,5534.239 and 5782.459 and 5651.249
same,TSA melting curve raw fluorescence signal,Temperature 91.5,5485.437 and 5732.541 and 5602.45
same,TSA melting curve raw fluorescence signal,Temperature 92,5436.675 and 5683.158 and 5554.509
same,TSA melting curve raw fluorescence signal,Temperature 92.5,5388.401 and 5634.075 and 5506.779
same,TSA melting curve raw fluorescence signal,Temperature 93,5340.709 and 5584.743 and 5459.066
same,TSA melting curve raw fluorescence signal,Temperature 93.5,5293.026 and 5535.668 and 5411.656
same,TSA melting curve raw fluorescence signal,Temperature 94,5246.665 and 5487.053 and 5364.483
same,TSA melting curve raw fluorescence signal,Temperature 94.5,5200.592 and 5438.486 and 5317.25
same,TSA melting curve raw fluorescence signal,Temperature 95,5156.993 and 5390.804 and 5270.513
